For one molecule, binding results are on record in PMC11880246.

These are yes or no findings as the source states them, for the method shown. Some binding calls cover weakened binding; strength is not graded here.

The assay deals with T1, purified recombinant TMEM41B (not stated (human or mouse cDNA cloned)), Q5BJD5.
T1 chain: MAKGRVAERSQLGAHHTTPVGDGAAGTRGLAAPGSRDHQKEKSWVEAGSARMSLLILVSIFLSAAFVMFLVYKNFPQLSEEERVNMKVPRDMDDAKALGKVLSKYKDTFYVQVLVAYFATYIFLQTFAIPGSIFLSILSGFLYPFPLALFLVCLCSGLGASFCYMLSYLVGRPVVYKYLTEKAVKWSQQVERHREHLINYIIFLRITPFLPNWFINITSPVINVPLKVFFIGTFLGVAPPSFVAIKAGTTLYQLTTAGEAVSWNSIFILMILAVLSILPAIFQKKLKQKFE
Nature of the assay: native gel or EMSA; purified recombinant TMEM41B on native gels, compared with 25 kDa on denatured gels; both purified. The note with it: remark: other sources report otherwise. A general note: Mobility shift assays separate free from complexed probe on a gel.

B1: purified recombinant TMEM41B, Q5BJD5 1-291 (protein)
chain: MAKGRVAERSQLGAHHTTPVGDGAAGTRGLAAPGSRDHQKEKSWVEAGSARMSLLILVSIFLSAAFVMFLVYKNFPQLSEEERVNMKVPRDMDDAKALGKVLSKYKDTFYVQVLVAYFATYIFLQTFAIPGSIFLSILSGFLYPFPLALFLVCLCSGLGASFCYMLSYLVGRPVVYKYLTEKAVKWSQQVERHREHLINYIIFLRITPFLPNWFINITSPVINVPLKVFFIGTFLGVAPPSFVAIKAGTTLYQLTTAGEAVSWNSIFILMILAVLSILPAIFQKKLKQKFE
On to B1, for which the binding result was “binds”.
